Test results taken from PubChem BioAssay AID1508600 (Functional Genomics Laboratory (NCATS/FGL), 2020).
About 3,700 (7%) of roughly 53,000 sequences were called active.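 Rule for the calls: active = gene knockdowns whose robust z-score for IL-1 alpha signal is at least 2 or at most -2, so actives lie on both sides; inactive = the rest.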 This is one part of the list.

experiment: Components of the Cytosolic LPS Sensing Pathway: Gene Identification via Genome-wide siRNA Screen; details: RAW264.7 macrophages, IL-1a HTRF, actives lie on both sides, screened at 100 nM (by protocol), cells primed 5 h with Pam3CSK4 first;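 note: robust z of the log signal after scaling to non-targeting control siRNA wells of the plate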
Procedure, shortened: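 Using IL-1a HTRF as read-out, the screen measured release from RAW264.7 cells after 48h siRNA knockdown (100 nM), 5 h Pam3CSK4 priming and 24 h cytosolic LipidA. Values were expressed relative to negative-control wells as robust z-scores.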

Sequence | z-score
GGAGGCUCUCACCGUAAACTT against Ttc7 | inactive: -0.985
GGCUGGCAUCACCAUCAAATT against Kit | inactive: 0.429
CCCAACAACCAACUAUUUUTT against Kcna1 | active: 3.36
GCGUGAUAGAGCUUUAUCUTT against Slc16a7 | inactive: -0.337
GGCCAAUUAACUAUGAAUUTT against Idi2 | inactive: 0.197
GGCUUCUAGUGGGAUGUAATT against Slc45a1 | inactive: -0.16
GCUGGGUCUAAACUGUGCCTT against Cpsf2 | inactive: 0.302
GGACUGCUUACCUAAAAGUTT against Insig1 | inactive: 1.06
GGAGCGUAGCAUUUGCAUATT against Gcnt2 | inactive: 1.81
CCCUAAUAAUCAAUGCAUCTT against Ifit1bl2 | inactive: 0.239
GGCCAAAUUCUUCAGCAGATT against Rpl27a | inactive: -0.263
CCUAACAAAUGGUGGGAAATT against Nxph1 | inactive: 0.819
GGAACAGUUUGCUUGGAGATT against Rps10 | inactive: 0.455
CCUCACAUAUACUGAGCUUTT against Parp12 | inactive: 0.665
GGACUCCUCCCAAGACGAATT against Avil | inactive: -0.118
GCUGCUGUCCUAAACUUUCTT against Wdr83os | inactive: -0.0195
GGAUUCUGAGCGUAGCUGATT against Mblac1 | inactive: 0.761
CCAUUGUCAAGCCAGACUATT against Emilin1 | inactive: -1.2
GCUCAGCCUGAGUAACGCATT against Nup62 | inactive: -0.323
GCUGGUCAUCAUGUGGAAGTT against Ssu2 | inactive: 1.04
CGGUCUACAAUAACAACAGTT against 1700009J07Rik | inactive: -0.631
GCACAGCUCUACAUAUUUCTT against Olfr313 | inactive: 0.595
GGUCCUAACAUCCAGAGUGTT against Zfp438 | inactive: -1.06

Sequence | z-score
GCUGAGGGUAAAACCGGAATT against Tbc1d22b | inactive: 1.34
GGAAGAGGCAGAUUUAUGGTT against Prss23 | inactive: 0.856
GGGAGAGGACCUCAAUGAATT against Mob1a | inactive: -0.0583
GGUACUGUGGUUUAUUCCUTT against Zmat2 | inactive: 1.01
GACCACCAGAAAGUUUCACTT against Lfng | inactive: 0.339
GCUCCACUCAAUUCAGUCCTT against Cd19 | inactive: -0.0698
GGUGACACUUCUUGUGGAUTT against Kctd20 | inactive: 0.76
GGCUGUUCCAUGAAGUUGUTT against Noc2l | inactive: -1.09
GGCAUUGUAUUUAACACACTT against Aass | inactive: 1.76
GGUAACCCACUUCCUUCCUTT against Fgf4 | inactive: -0.568
GCAGGCUCGCUGUAACUACTT against Ocel1 | inactive: -1.04
GGGACUGACGUAUAAAUACTT against Dnase2a | inactive: 0.0971
GGAAUUAAAGAAAUAUGGCTT against Hspa4l | inactive: -0.937
CCUUUAAGUACACUUGUGUTT against Oas1c | inactive: 0.226
GCAAAGUCUAAGUUCUAUGTT against Osbpl5 | inactive: -0.718
CGCAUUACAUUAGCCAAAATT against Ttc28 | inactive: 1.21
GGUUUAUUCUUGCUACUUUTT against Tmem62 | inactive: 0.501
CGUACCAGGAUUUUGAUAUTT against Adam17 | inactive: 0.865
GGUUCAGUUUGCCAAAGACTT against Elfn1 | inactive: 1.45
GGUUCAACGACCUUCGAUUTT against Runx3 | inactive: 0.175
GGACCAUGAGUUACCGCAUTT against Plaur | inactive: 0.53
GCUCCAUCUACAAACAAUGTT against Gpr37l1 | inactive: 1.53
GCAACUCUAUCACUAAACUTT against Il2ra | inactive: 1.84

Reformatted comma-delimited: part of the list above
Sequence,z-score
GCUGAGGGUAAAACCGGAATT against Tbc1d22b,inactive: 1.34
GGAAGAGGCAGAUUUAUGGTT against Prss23,inactive: 0.856
GGUACUGUGGUUUAUUCCUTT against Zmat2,inactive: 1.01
GACCACCAGAAAGUUUCACTT against Lfng,inactive: 0.339
GGUGACACUUCUUGUGGAUTT against Kctd20,inactive: 0.76
GGCUGUUCCAUGAAGUUGUTT against Noc2l,inactive: -1.09
GGCAUUGUAUUUAACACACTT against Aass,inactive: 1.76
GGUAACCCACUUCCUUCCUTT against Fgf4,inactive: -0.568
GCAGGCUCGCUGUAACUACTT against Ocel1,inactive: -1.04
GGGACUGACGUAUAAAUACTT against Dnase2a,inactive: 0.0971
GGAAUUAAAGAAAUAUGGCTT against Hspa4l,inactive: -0.937
CCUUUAAGUACACUUGUGUTT against Oas1c,inactive: 0.226
GGUUUAUUCUUGCUACUUUTT against Tmem62,inactive: 0.501
CGUACCAGGAUUUUGAUAUTT against Adam17,inactive: 0.865
GGUUCAGUUUGCCAAAGACTT against Elfn1,inactive: 1.45
GGUUCAACGACCUUCGAUUTT against Runx3,inactive: 0.175
GGACCAUGAGUUACCGCAUTT against Plaur,inactive: 0.53
GCUCCAUCUACAAACAAUGTT against Gpr37l1,inactive: 1.53

Carrying on:

Sequence | z-score
GCUGGAGGGAUGCGAAUCUTT against Dapl1 | inactive: 1.27
CCAAGGAUUGUAAAGAAACTT against Hunk | inactive: -0.471
GGAAGAAAGUCCUCUUUGCTT against Slc22a4 | inactive: -0.807
GGCUCCUAAAAAGUUUGCATT against Nemp2 | inactive: -0.703
CGACUCAAUCAAUCUGAUUTT against Hook3 | inactive: 0.898
GGACUUCUCCAUCCUGACATT against Col5a1 | inactive: -0.404
GGCCCAGAAGGUUAUCAUCTT against Ptf1a | inactive: 0.606
GGGACAGAUUUUGAACUGATT against Cd2 | inactive: 0.567
GGCCAUUUCCAGCUUGAGUTT against Dnaaf1 | inactive: -0.582
GCUUCAAGCCAUCCGAAUATT against Cfap36 | inactive: 0.886
GGUACUAUUCAGUCCUUUATT against Gpr176 | inactive: -0.568
GGUGAAUAUACUGUAAUGATT against Gabra2 | inactive: -0.765
CCUACUUAGUCCAGUUUAATT against Olfr735 | inactive: 0.366
GGGUUUUUCUGAAAAACAUTT against Nceh1 | inactive: 0.287
CCUCUUCAGCUUACAGUGGTT against Fjx1 | inactive: 0.017
CCAAUCUCUACCGUCUCCUTT against Camp | inactive: -0.619
GGUUAUUCAUAUGGAACUGTT against Mapk9 | inactive: -1.37
GGGCUGCUUUAAUAAAGAUTT against Pycr2 | inactive: 0.578
GGGUUCACGAAAGAGUAAATT against Clcn5 | inactive: -1.21
CGAAGUUUUGUUGAAAAGCTT against Rhobtb3 | inactive: -0.679
CCGUGAAAAUCAGUAAUUATT against Cacybp | inactive: -0.546
GGUGUCCACGGUGGUUUGATT against Pfn1 | inactive: -0.268
